# Counter-ions that a name gives are not always drawn. The list shows a part of the results. Most values lie at the level of the controls, where differences are scatter.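 Melting temperature was read by differential scanning fluorimetry in a single-replicate pilot screen of a library of approved drugs and clinical or known-target compounds. Compounds raising the melting point by at least 2 °C were the top stabilizing hits, and negative shifts mean destabilization.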
# Test system: SARS-CoV-2 main protease (Mpro, nsp5)
# Test: thermal shift ΔTm of Mpro relative to plate average Tm; higher = stronger thermal stabilization of Mpro (binding)
# Details: 10 µM; protein concentration 1 µM
row,Compound,thermal shift ΔTm of Mpro [°C]
1,O=C(Nc1ccc(Cl)cc1)C1CCCN(C(=O)c2cccc(-c3ccco3)c2)C1 (configuration not stated),0.172
2,CCN[C@H]1C[C@H](C)S(=O)(=O)c2sc(S(N)(=O)=O)cc21 [Dorzolamide hydrochloride],0.386
3,CN1CCN(c2ccc(-c3ccncc3-c3cc(F)c(O)c(F)c3)cc2)CC1,0.141
4,O=C(O)CCCCN(CCc1ccccc1OCc1ccc(CCc2ccccc2)cc1)Cc1ccc(C(=O)O)cc1 [Cinaciguat],-0.0236
5,C[C@@H]1[C@H](O)[C@@H](C)/C=C/C=C/C=C/C=C/C=C/C=C/C=C/[C@H](O[C@@H]2O[C@H](C)[C@@H](O)[C@H](N)[C@@H]2O)C[C@@H]2O[C@](O)(C[C@@H](O)C[C@@H](O)[C@H](O)CC[C@@H](O)C[C@@H](O)CC(=O)O[C@H]1C)C[C@H](O)[C@H]2C(=O)O [Amphotericin B],0.0425
6,O=c1cc(N2CCOCC2)oc2c1ccc1ccccc12,0.14
7,CCC(Cc1c(I)cc(I)c(N)c1I)C(=O)O (configuration not stated) [Iopanoic acid],0.321
8,C/C(=N\NC(=O)C(NC(=O)c1ccccc1)c1n[nH]c(=O)c2ccccc12)c1cccc(Br)c1 (configuration not stated),0.0135
9,Cc1cc(Nc2ccc(NC(=O)c3ccc(Nc4ccnc5ccccc45)cc3)cc2)nc(N)n1,0.823
10,CNC(CC(=O)O)C(=O)O [NMDA (N-Methyl-D-aspartic acid)],-0.0829
11,C[C@H](NC(=O)Cc1cc(F)cc(F)c1)C(=O)N[C@H](C(=O)OC(C)(C)C)c1ccccc1,-0.116
12,CC(C)N(CCCNC(=O)Nc1ccc(C(C)(C)C)cc1)C[C@H]1O[C@@H](n2ccc3c(N)ncnc32)[C@H](O)[C@@H]1O,-0.194
13,N#CC(C#N)=NNc1ccc(OC(F)(F)F)cc1,0.118
14,C[C@]12CC[C@@H]3c4ccc(O)cc4CC[C@H]3[C@@H]1CC[C@@H]2OC(=O)CCC1CCCC1 [Estradiol Cypionate],0.777
15,C[C@]12CCC3=C4CCC(=O)C=C4CC[C@H]3[C@@H]1CCC2=O [Methyldienedione],0.391
16,CCS(=O)(=O)Nc1ccc2[nH]c(O)c(C(=Nc3ccc(CN4CCCCC4)cc3)c3ccccc3)c2c1 [Hesperadin],-0.244
17,C[C@H](NC(=O)[C@@H](O)c1cc(F)cc(F)c1)C(=O)N[C@@H]1C(=O)N(C)c2ccccc2-c2ccccc21,-0.029
18,CC(C)Oc1ccc(Cc2ccc(NC3=NCCN3)cc2)cc1,-0.232
19,CCc1cc2c(s1)-n1c(C)nnc1CN=C2c1ccccc1Cl [Etizolam],-0.0434
20,COc1cc(OC)c(C(=O)CCCN2CCCC2)c(OC)c1 [Buflomedil HCl],0.057
21,N#CC(c1ccc(Cl)cc1)c1c(Cl)cc(-n2ncc(=O)[nH]c2=O)cc1Cl (configuration not stated) [Diclazuril],0.118
22,O=c1ccc2ccc(O)c(O)c2o1 [Daphnetin],3.68
23,O.O.O.O.O=C([O-])CC(O)(CC(=O)[O-])C(=O)[O-].[Li+].[Li+].[Li+] [Lithium citrate tribasic tetrahydrate],-0.00458
24,CC(C)(C)C(=O)OCOP(=O)(COCCn1cnc2c(N)ncnc21)OCOC(=O)C(C)(C)C [Adefovir Dipivoxil],-0.013
25,COc1ccc(CCNCc2ccc(OCc3ccc(Cl)nc3)c(OC)c2)cc1OC,-0.164
26,Cn1c(=O)cnn(CCCCN2CCN(c3ncccn3)CC2)c1=O [Eptapirone],0.188

row,Compound,thermal shift ΔTm of Mpro [°C]
1,O=S(=O)(c1cccc2c(I)cccc12)N1CCCNCC1 [ML-7 hydrochloride],-0.226
2,COc1ccccc1N1CCN(CC(O)COc2cccc3ccccc23)CC1 (configuration not stated) [Naftopidil],0.1
3,COc1ccccc1N1CCN(CC(O)COc2cccc3ccccc23)CC1 (configuration not stated) [Naftopidil DiHCl],0.138
4,CN1CCC(=C2c3ccccc3CC(=O)c3sccc32)CC1 [Ketotifen Fumarate],0.0269
5,CCCNC[C@]1(O)[C@H](C)O[C@@H](O[C@H]2[C@H](C)[C@@H](O[C@@H]3O[C@H](C)C[C@H](N(C)C)[C@H]3O)[C@](C)(O)C[C@@H](C)CN[C@H](C)[C@@H](O)[C@](C)(O)[C@@H](CC)OC(=O)[C@@H]2C)C[C@@]1(C)OC [Tulathromycin A],-0.0443
6,O=C(O)CC[C@H]1CC[C@@](c2cc(F)ccc2F)(S(=O)(=O)c2ccc(Cl)cc2)CC1,0.0152
7,C/C=C1\NC(=O)[C@H]2CSSCC/C=C/[C@H](CC(=O)N[C@H](C(C)C)C(=O)N2)OC(=O)[C@H](C(C)C)NC1=O [Romidepsin],0.114
8,CC(C)c1cc(/C=C(\C#N)C(N)=O)cc(C(C)C)c1O,-0.0114
9,CCc1ccc(N(CC(C)C)S(=O)(=O)c2ccc(OCC3CCOCC3)c(CO)c2)cc1,0.0791
10,COC(=O)c1sccc1S(=O)(=O)Nc1ccc(Nc2ccccc2)cc1OC,-0.108
11,CC(C)(Sc1cc(C(C)(C)C)c(O)c(C(C)(C)C)c1)Sc1cc(C(C)(C)C)c(O)c(C(C)(C)C)c1 [Probucol],0.136
12,Cc1cccc(-c2[nH]ncc2-c2ccnc3ccccc23)n1,0.0571
13,CCOc1cc(C(C)(C)C)ccc1C1COC(c2c(F)cccc2F)=N1 (configuration not stated) [Etoxazole],-0.227
14,C=CC(=O)Nc1cccc(Nc2nc(Nc3ccc(N4CCN(C(C)=O)CC4)cc3OC)ncc2C(F)(F)F)c1,0.00733
15,O=C(Nc1ccc(O)cc1)c1ccccc1O [Osalmid],0.101
16,CS(=O)(=O)CCNCc1ccc(-c2ccc3ncnc(Nc4ccc(OCc5cccc(F)c5)c(Cl)c4)c3c2)o1 [Lapatinib],0.674
17,CS(=O)(=O)CCNCc1ccc(-c2ccc3ncnc(Nc4ccc(OCc5cccc(F)c5)c(Cl)c4)c3c2)o1,0.628
18,CS(=O)(=O)CCNCc1ccc(-c2ccc3ncnc(Nc4ccc(OCc5cccc(F)c5)c(Cl)c4)c3c2)o1 [Lapatinib ditosylate monohydrate],0.32
19,Oc1ccc(Cl)c2cccnc12 [Dermofongin],0.214
20,Nc1c(Br)cc(Br)cc1CN[C@H]1CC[C@H](O)CC1 [Ambroxol],0.259
21,Nc1c(Br)cc(Br)cc1CN[C@H]1CC[C@H](O)CC1 [Ambroxol HCl],0.0643
22,Cn1ccnc1S [Methimazole],-0.035
23,O=C(O)CCC(=O)Nc1ccc(Br)cn1 [Bikinin],-0.207
24,COc1ccc(C(=O)Nc2sc3c(c2C(N)=O)CCCC3)cc1OC,-0.123
25,CC(=O)N[C@@H](CCC(N)=O)C(=O)O [Aceglutamide],-0.345
26,O=NO [Sodium Nitrite],0.178

# Part of the list above, set out differently:
row | Compound | thermal shift ΔTm of Mpro [°C]
23 | O=C(O)CCC(=O)Nc1ccc(Br)cn1 [Bikinin] | -0.207
24 | COc1ccc(C(=O)Nc2sc3c(c2C(N)=O)CCCC3)cc1OC | -0.123
25 | CC(=O)N[C@@H](CCC(N)=O)C(=O)O [Aceglutamide] | -0.345

# (list continues)

row,Compound,thermal shift ΔTm of Mpro [°C]
1,CC(=O)NO [Acetohydroxamic acid],0.184
2,COc1cc(Nc2ncc(F)c(Nc3ccc4c(n3)NC(=O)C(C)(C)O4)n2)cc(OC)c1OC,-0.0341
3,COc1cc(Nc2ncc(F)c(Nc3ccc4c(n3)NC(=O)C(C)(C)O4)n2)cc(OC)c1OC [R406 (free base)],0.0493
4,CC[C@H]1OC(=O)[C@@](C)(F)C(=O)[C@H](C)[C@@H](O[C@@H]2O[C@H](C)C[C@H](N(C)C)[C@H]2O)[C@](C)(OC)C[C@@H](C)C(=O)[C@H](C)[C@H]2N(CCCCn3cc(-c4cccc(N)c4)nn3)C(=O)O[C@]12C [Solithromycin],-0.0534
5,CC(C)(Oc1ccc(Cl)cc1)C(=O)O [Clofibric Acid],0.0159
6,CC(=O)[C@@]1(O)CC[C@H]2[C@@H]3CCC4=CC(=O)CCC4=C3[C@@H](c3ccc(N(C)C)cc3)C[C@@]21C [Ulipristal],-0.16
7,O=c1cc(N2CCNCC2)oc2c(-c3ccccc3)cccc12,0.108
8,Cc1c(N[C@@H](c2nnc(-c3ccc(C#N)cc3)o2)[C@H](C)O)ccc(C#N)c1Cl [Testolone],-0.095
9,COc1cc2ncc(-c3ccccc3)nc2cc1OC [Tyrphostin AG 1296],-0.062
10,Cc1ccc(/C(=C\CN2CCCC2)c2cccc(/C=C/C(=O)O)n2)cc1 [Acrivastine],0.103
11,CCC[C@H](Nc1nc(-c2ccc(NC(=O)NCC)c(OC)c2)ncc1C)c1cccnc1 [CYT997 (Lexibulin)],-0.163
12,COc1cc2ncnc(Nc3ccc(Oc4ccccc4)cc3C)c2cc1OC,-0.0834
13,CS(=O)(=O)c1cccc(CNc2nc(Nc3ccc4c(c3)CCC(=O)N4)ncc2C(F)(F)F)c1,0.0365
14,CCCCCCCCCCC[C@@H](C[C@@H]1OC(=O)[C@H]1CCCCCC)OC(=O)[C@H](CC(C)C)NC=O [Orlistat],0.111
15,CC(C)(C)n1nc(-c2ccc(Cl)cc2)c2c(N)ncnc21,-0.0517
16,Cc1onc(-c2ccccc2Cl)c1C(=O)N(C)c1ccc(Cl)cc1,0.0501
17,CC1(C)CCC(CN2CCN(c3ccc(C(=O)NS(=O)(=O)c4ccc(NCC5CCOCC5)c([N+](=O)[O-])c4)c(Oc4cnc5[nH]ccc5c4)c3)CC2)=C(c2ccc(Cl)cc2)C1,1.07
18,NCC1CCC(C(=O)O)CC1 (configuration not stated) [Amstat],0.216
19,O=C(CC1NCCCC1O)Cn1cnc2cc(Br)c(Cl)cc2c1=O (configuration not stated) [Halofuginone hydrobromide],0.0564
20,Cc1cccc(/C=N/Nc2cc(N3CCOCC3)nc(OCCc3ccccn3)n2)c1 [Apilimod mesylate],-0.164
21,Cc1cccc(/C=N/Nc2cc(N3CCOCC3)nc(OCCc3ccccn3)n2)c1 [Apilimod],0.00159
22,Cc1ccc(NC(=O)c2ccc(CN3CC[C@H](N(C)C)C3)c(C(F)(F)F)c2)cc1Nc1nccc(-c2cncnc2)n1 [Bafetinib (INNO-406)],0.564
23,Cc1c2[n+](cc3cc4c(cc13)OCO4)CCc1cc3c(cc1-2)OCO3 [Worenine],0.0353
24,Cc1cccc(C)c1NC(=O)C1CCCCN1C (configuration not stated) [Mepivacaine HCl],0.219
25,CCc1nc(-c2cccc(C)c2)c(-c2ccnc(NC(=O)c3ccccc3)c2)s1,-0.352

# — the supplement of paper PMC8166895
